Measurements published in the supplement of paper PMC7024190.
Where a name gives a salt, the structure may show the parent alone. The list shows a part of the results. Single values are uncertain here, since repeats match poorly.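 Human embryonic kidney cells were transiently transfected with a plasmid bearing a Renilla luciferase gene under the HSV-TK promoter. This first-round screen tests roughly ten thousand compounds for ones that increase reporter output.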

The compounds below were run on HEK 293FT (assay: log relative Renilla luciferase luminescence (reporter expression vs reference, reference not stated) (log (base not stated)); higher = higher recombinant reporter expression). Conditions: 10 µM; time after transfection 48 h.

Compound | log
C[C@H](CCC(=O)O)[C@H]1CC[C@H]2[C@@H]3CC[C@@H]4C[C@H](O)CC[C@]4(C)[C@H]3C[C@H](O)[C@]12C [deoxycholic acid] | 0.112
COc1ccc2cc(C(C)C(=O)O)ccc2c1 (stereo not drawn) [naproxen(+)] | -0.16
COc1c(O)cccc1O [2-methoxyresorcinol] | 0.0145
COC(=O)CC[C@@H](C)[C@H]1CC[C@H]2[C@@H]3[C@H](O)C[C@@H]4C[C@H](O)CC[C@]4(C)[C@H]3C[C@H](O)[C@]12C [cholic acid, methyl ester] | 0.0161
Cc1cc(CC(=O)O)n(C)c1C(=O)c1ccc(Cl)cc1 [zomepirac sodium] | -0.064
CCCCCCCCCCCCCCCC(=O)O[C@@H]1[C@@H](O)[C@@H](O)[C@@H]([C@H](NC(=O)[C@@H]2C[C@@H](CCC)CN2C)[C@H](C)Cl)O[C@@H]1SC [clindamycin palmitate hydrochloride] | 0.0938
CC12CCC(CC1)C(C)(C)O2 [eucalyptol] | -0.0721
CC(=O)Nc1ncc([N+](=O)[O-])s1 [nithiamide] | 0.0453
CC1(C)CC[C@]2(C(=O)O)CC[C@]3(C)C(=CC[C@@H]4[C@@]5(C)CC[C@H](O)[C@@](C)(CO)[C@@H]5CC[C@]43C)[C@@H]2C1 [hederagenin] | -0.0748
O=C1CC2(CCCC2)CC(=O)N1CCCCN1CCN(c2ncccn2)CC1 [buspirone hydrochloride] | 0.00694
CC[C@H]1OC(=O)[C@H](C)[C@@H](O[C@H]2C[C@@](C)(OC)[C@@H](O)[C@H](C)O2)[C@H](C)[C@@H](O[C@@H]2O[C@H](C)C[C@H](N(C)C)[C@H]2O)[C@](C)(O)C[C@@H](C)[C@@H]2N[C@@H](COCCOC)O[C@H]([C@H]2C)[C@]1(C)O [dirithromycin] | 0.0168
CC(C)/C(O)=C1/C(=O)O[C@@H](c2ccoc2)[C@]2(C)C(O)[C@@H](O)[C@@]34OC5(C)OC67CC(C)(C(O)[C@]6(O)[C@@H](O)[C@]3(O5)C12)[C@H](CC(=O)O)[C@]74C (stereo partly specified) [hydrolysis product of bussein] | 0.0605
CC(=O)OC1CC2CCC1(C)C2(C)C (stereo unspecified) [bornyl acetate] | 0.0261
O=c1cc[nH]c(=S)[nH]1 [2-thiouracil] | -0.0418
CC(=O)O[C@@H]1C[C@@]23C[C@@]24CC[C@H](O[C@@H]2OC[C@@H](O)[C@H](O)[C@H]2O)C(C)(C)[C@@H]4CC[C@H]3[C@]2(C)C[C@@H]3O[C@]4(C[C@@H](C)[C@@H]3[C@@]12C)O[C@H](O)[C@@]1(C)O[C@@H]41 [actein] | -0.0168
CN(C)c1nc(N(C)C)nc(N(C)C)n1 [altretamine] | 0.123
CC(C)NCC(O)c1ccc2ccccc2c1 (stereo unspecified) [pronetalol hydrochloride] | 0.0119
N[C@@H](Cc1ccccc1)C(=O)O [phenylalaniine (l) hydrochloride] | 0.105
O=C(O)c1cc(-c2ccccc2)nc2ccccc12 [cinchophen] | -0.987
CC(=O)O[C@]1(C(C)=O)CC[C@H]2[C@@H]3C[C@H](C)C4=CC(=O)CC[C@]4(C)[C@H]3CC[C@@]21C [medroxyprogesterone acetate] | 0.129
C[C@H]1C[C@@H]2[C@H]([C@@H](O)C[C@@]3(C)[C@H]2CC[C@]3(O)C(=O)CO)[C@@]2(C)C=CC(=O)C=C12 [methylprednisolone] | -1.32
NC(=O)C(c1ccccc1)(c1ccccc1)[C@@H]1CCN(CCc2ccc3c(c2)CCO3)C1 [darifenacin hydrobromide] | 0.226
CCCNCC(O)COc1ccccc1C(=O)CCc1ccccc1 (stereo unspecified) [propafenone hydrochloride] | 0.138
O=C(Nc1ccccc1)Nc1ccccc1 [diphenylurea] | 0.0115

Reprinted at random: 3 entries already listed, in no set order.
Compound | log
COC(=O)CC[C@@H](C)[C@H]1CC[C@H]2[C@@H]3[C@H](O)C[C@@H]4C[C@H](O)CC[C@]4(C)[C@H]3C[C@H](O)[C@]12C [cholic acid, methyl ester] | 0.0161
CC(=O)OC1CC2CCC1(C)C2(C)C (stereo unspecified) [bornyl acetate] | 0.0261
CC(C)/C(O)=C1/C(=O)O[C@@H](c2ccoc2)[C@]2(C)C(O)[C@@H](O)[C@@]34OC5(C)OC67CC(C)(C(O)[C@]6(O)[C@@H](O)[C@]3(O5)C12)[C@H](CC(=O)O)[C@]74C (stereo partly specified) [hydrolysis product of bussein] | 0.0605

(further entries)

Compound | log
O=[N+]([O-])c1cccc2cn[nH]c12 [7-nitroindazole] | 0.0747
COc1ccccc1OCC(O)CN1CCN(CC(=O)Nc2c(C)cccc2C)CC1 (stereo unspecified) [ranolazine] | 0.0765
O=c1c(O)c(-c2ccccc2)oc2cc(O)ccc12 [3,7-dihydroxyflavone] | -0.178
OC[C@H]1O[C@@H](Oc2cc(O)cc(/C=C/c3ccc(O)cc3)c2)[C@H](O)[C@@H](O)[C@@H]1O [piceid] | 0.0271
COc1ccc(C2CNC(=O)C2)cc1OC1CCCC1 (stereo unspecified) [rolipram] | -0.174
O=c1c(O)c(-c2ccc(O)cc2O)oc2cc(O)cc(O)c12 [morin] | -0.124
COc1cc(-c2coc3cc(O[C@@H]4O[C@H](CO)[C@@H](O)[C@H](O)[C@H]4O)c(OC)c(O)c3c2=O)cc(O)c1OC [iridin] | 0.0587
Cc1c(O)c(=O)ccn1C [deferiprone] | 0.0205
c1ccc([C@H]2CN3CCSC3=N2)cc1 [levamisole hydrochloride] | -1.99
CCC(=O)O[C@]1(C(=O)CCl)[C@@H](C)C[C@H]2[C@@H]3CCC4=CC(=O)C=C[C@]4(C)[C@@]3(F)[C@@H](O)C[C@@]21C [clobetasol propionate] | 0.153
O=C1C[C@@H](c2ccc(O)cc2)Oc2cc(O)cc(O)c21 [naringenin] | 0.00309
O=C1OCCN1/N=C/c1ccc([N+](=O)[O-])o1 [furazolidone] | -0.0961
CC(C)[C@H](N)C(=O)OCC(CO)OCn1cnc2c(=O)nc(N)[nH]c21 (stereo partly specified) [valganciclovir hydrochloride] | 0.107
NC(=O)c1ccc([N+](=O)[O-])cc1Cl [aklomide] | 0.0502
O=C(/C=C/C(=O)Oc1ccccc1C(=O)O)Oc1ccccc1C(=O)O [bissalicyl fumarate] | 0.0931
COc1c2occc2c(OC)c2c(=O)cc(C)oc12 [khellin] | -0.00699
C1CNCCN1 [piperazine] | 0.0618
Nc1cc(C(Cl)=C(Cl)Cl)c(S(N)(=O)=O)cc1S(N)(=O)=O [clorsulon] | -0.241
CC[C@H](C)C(=O)O[C@H]1CCC=C2C=C[C@H](C)[C@H](CC[C@@H]3C[C@@H](O)CC(=O)O3)[C@H]21 [mevastatin] | 3.55e-05
C[C@H](CCC(=O)O)[C@H]1CC[C@H]2[C@@H]3[C@H](O)C[C@@H]4C[C@H](O)CC[C@]4(C)[C@H]3CC[C@]12C [chenodiol] | 0.0109
NNc1nncc2ccccc12 [hydralazine hydrochloride] | 0.132
CC(=O)OCC(CCn1cnc2cnc(N)nc21)COC(C)=O [famciclovir] | 0.101
O=C(/C=C/c1ccc(O)c(O)c1)OCCc1ccccc1 [phenethyl caffeate (cape)] | -0.604
NCC(O)CC(=O)O (stereo unspecified) [aminohydroxybutyric acid] | 0.0815

Compound | log
CN1CCN(CCCN2c3ccccc3Sc3ccc(Cl)cc32)CC1 [prochlorperazine edisylate] | -0.0274
O=C1c2ccccc2C(=O)c2c1ccc(O)c2O [alizarin] | 0.216
CC(=O)Oc1cc(OC(C)=O)c2c(c1)O[C@H](c1ccc(OC(C)=O)c(OC(C)=O)c1)[C@H](OC(C)=O)C2 [epicatechin pentaacetate] | 0.121
CC(=O)O[C@H]1CC[C@@]2(C)[C@@H](CC[C@@H]3[C@@H]2CC(=O)[C@]2(C)[C@@H]4[C@H](C[C@@H]32)O[C@]2(CC[C@@H](C)CO2)[C@H]4C)C1 [hecogenin acetate] | 0.0824
O=c1oc2ccccc2c(O)c1Cc1c(O)c2ccccc2oc1=O [dicumarol] | -0.134
COC(=O)/C=C/C(C)=C\C=C\C(C)=C\C=C\C=C(C)\C=C\C=C(C)\C=C\C(=O)O [bixin] | -0.699
O=S(=O)(O)NC1CCCCC1 [cyclamic acid] | -0.0828
CC(C)NC[C@@H](O)COc1cccc2ccccc12 [dexpropranolol hydrochloride] | 0.0263
CCc1cn([C@H]2C[C@H](O)[C@@H](CO)O2)c(=O)[nH]c1=O [edoxudine] | 0.00835
C[C@@H]1O[C@@H](O[C@H]2[C@H](Oc3cc(O)c4c(=O)cc(-c5ccc(O)cc5)oc4c3)O[C@H](CO)[C@@H](O)[C@@H]2O)[C@H](O)[C@H](O)[C@H]1O [rhoifolin] | -0.0187
CCN(CC)CCc1nc(-c2ccccc2)no1 [oxolamine citrate] | 0.0854
O=S(=O)([O-])NC1CCCCC1.[Na+] [sodium cyclamate] | -0.0924
Cc1c(N(C)CS(=O)(=O)O)c(=O)n(-c2ccccc2)n1C [dipyrone] | 0.103
CN(C)[C@@H]1C(O)=C(C(=O)NCN2CCCC2)C(=O)[C@@]2(O)C(O)=C3C(=O)c4c(O)cccc4[C@@](C)(O)[C@H]3C[C@@H]12 [rolitetracycline] | -0.154
CC(NCCC(c1ccccc1)c1ccccc1)c1ccccc1 (stereo unspecified) [fendiline hydrochloride] | 0.0799
CC1(C)OC(=O)NC1=O [dimethadione] | -0.132
N=C(N)NCC1COC2(CCCCC2)O1 (stereo unspecified) [guanadrel sulfate] | -0.0333
CCC[C@H](N[C@@H](C)C(=O)N1[C@H](C(=O)O)C[C@@H]2CCCC[C@@H]21)C(=O)OCC [perindopril erbumine] | -0.00801
Cn1nnnc1SCC1=C(C(=O)O)N2C(=O)[C@@H](NC(=O)[C@H](O)c3ccccc3)[C@H]2SC1 [cefamandole sodium] | -0.0802
COc1ccc(NS(=O)(=O)c2ccc(N)cc2)nn1 [sulfamethoxypyridazine] | 0.0597
Nc1ccc(C(=O)NCC(=O)O)cc1 [aminohippuric acid] | 0.16
OC[C@H]1O[C@@H](Oc2ccc(O)cc2)[C@H](O)[C@@H](O)[C@@H]1O [arbutin] | 0.0043
Nc1ccc(S(=O)(=O)c2ccc(N)cc2)cc1 [dapsone] | 0.107
